{"source": "patent US4178371A", "about": "“Tetrapeptide derivatives” (Reckitt & Colman Products Limited, priority 1977, dated 1979)", "key": {"mouse": {"test_system": "mouse", "test": "mouse phenyl-quinone anti writhing test of Hendershot et al (H & F)", "format": "in vivo", "conditions": "i.v.", "text": "(§1) J. Pharmacol, and Chemotherapy 33. 266-276 (1968). […] 13, 266 (1963)."}, "rat": {"test_system": "rat", "test": "rat tail flick test (R.T.F.), intravenous administration", "format": "in vivo", "conditions": "hot water 55° as nociceptive stimulus, i.v.", "method": "as §1\nIn the rat tail flick test hot water (maintained at 55°±1°C.) is used as the nociceptive stimulus."}}, "note": "Part of at least one peptide drawing is inferred or uncertain, most often the ends."}
{"smiles": "C[C@@H](NC(=O)[C@@H](N)Cc1ccc(O)cc1)C(=O)NCC(=O)N(C)[C@@H](Cc1ccccc1)C(=O)NCCCC(=O)N(C)c1ccccc1", "note": "[Example 19, HTyrDAlaGlyMePheNH(CH2)3 CONMePh]", "values": [{"measurement": "H & F ED50", "setting": "mouse", "value": 240, "unit": "µg/kg"}]}
{"smiles": "C[C@@H](NC(=O)[C@@H](N)Cc1ccc(O)cc1)C(=O)NCC(=O)N(C)[C@@H](Cc1ccccc1)C(=O)NCC[N+](C)(C)[O-]", "note": "[Example 22, HTyrDAlaGlyMePheNH(CH 2)2 N(O)Me2]", "values": [{"measurement": "R.T.F. ED50", "setting": "rat", "value": 320, "unit": "µg/kg"}, {"measurement": "H & F ED50", "setting": "mouse", "value": "8e-05", "unit": "µg/kg"}]}
